Results: PubChem BioAssay AID662 (National Center for Advancing Translational Sciences (NCATS), 2007)
This is one part of the list. Shown are side measurements of this screen, not its main read-out; they come without a call. The list favours compounds with an active or inconclusive main result. Potencies come from curve fits of mixed quality, noted in brackets.

test: Cell signaling CRE-BLA (Fsk stim); details: CHO CRE-bla reporter (cAMP response element driving beta-lactamase), forskolin EC10, beta-lactamase ratio; measured here: 460 nm blue channel
Method in brief: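 Using CellSensor CRE-bla CHO cells in Opti-MEM with 0.5% dialyzed FBS, compounds were titrated with EC10 NKH 477 for 3 h at 37 °C. CCF4 ratio (460/530 nm) gave %Activity; AC50 derived.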

| Structure (SMILES) | AC50 |
| --- | --- |
| CCc1c2c(nc3ccc(OC)cc13)OC(CC)C2 (centres undefined) | 20 µM [rising, single point] |
| Nc1c(C(=O)OCC2CCCO2)c2nc3ccccc3nc2n1-c1ccc2c(c1)OCCO2 (centres undefined) | 0.1 µM [rising, full curve] |
| O=C(NCc1ccc(Cl)cc1)C1C2C=CC3(CN(Cc4cccnc4)C(=O)C13)O2 (centres undefined) | 0.398 µM [rising, full curve] |
| Fc1ccc(-c2cc3nc4c(c(N5CCOCC5)n3n2)CCCC4)cc1 | 5.01 µM [rising, single point] |
| Cc1nc2ccccc2n1CC(=O)NCc1ccccc1 | 3.98 µM [falling, full curve] |
| O=C(CCN1C(=O)C2C3C=CC(C3)C2C1=O)N1CC(=O)N(CCc2ccccc2)C(=O)C1 (centres undefined) | 0.251 µM [falling, full curve, poor fit] |
| CC1=CC(C)(C)N(C(=O)CSc2nnc(-c3ccccc3)o2)c2ccc(C)cc21 | 0.316 µM [rising, full curve] |
| COCCNC(=O)c1sc2nc(-c3ccccc3)cn2c1C | 20 µM [rising, single point] |
| O=c1oc2ccccc2c(O)c1CN1CCCCC1 | 3.98 µM [rising, single point] |
| O=S(=O)(c1ccc2c(c1)OCCO2)N(Cc1ccc(F)cc1)Cc1nnc(-c2cccs2)o1 | 2.51 µM [falling, partial curve] |
| O=C(Nc1cccc(F)c1)C1CCN(c2nnnn2-c2ccccc2)CC1 | 5.01 µM [falling, single point] |
| CCC1Sc2ccccc2N(CC(=O)NCCC(C)C)C1=O (centres undefined) | 3.16 µM [falling, single point] |
| CCOC(=O)c1[nH]nc2c1C(=O)N(CC)C2=O | 10 µM [falling, partial curve, poor fit] |
| CCOC(=O)c1sc(NC(=O)c2cccs2)cc1C | 12.6 µM [rising, single point] |
| COc1cc(/C=N/n2c(SC)nnc(C(C)(C)C)c2=O)ccc1O | 12.6 µM [rising, partial curve] |
| CCOC(=O)Cc1c(C)c2ccc(N(CC)CC)cc2oc1=O | 10 µM [rising, partial curve] |
| COc1ccc(S(=O)(=O)Cc2ccc(C(=O)N3CCN(c4cccc(C)c4)C(C)C3)o2)cc1 (centres undefined) | 25.1 µM [falling, single point] |
| CCCCn1c(=O)n(Cc2cccc(F)c2)c(=O)c2c1ncn2Cc1ccco1 | 7.94 µM [rising, partial curve, poor fit] |
| COc1ccccc1-n1cnc2cc(NS(=O)(=O)c3ccccc3)ccc21 | 12.6 µM [rising, single point] |
| CCCS(=O)(=O)c1nc(S(=O)(=O)c2ccc(C)cc2)c(N2CCCC2)s1 | 0.0501 µM [rising, single point] |
| CS(=O)(=O)c1ncc(Cl)c(C(=O)Nc2ccc(N3CCOCC3)cc2)n1 | 2.51 µM [falling, full curve] |
| COc1ccc(NS(=O)(=O)c2cc(OC)ccc2NC(=O)c2cc(C)oc2C)cc1 | 25.1 µM [rising, single point] |

| Structure (SMILES) | AC50 |
| --- | --- |
| C=CCn1c(SCCCCCC)nc(O)cc1=O | 6.31 µM [rising, partial curve] |
| COc1ccc(COC(=O)C2=C(C)NC(=O)NC2c2ccc(O)c(OC)c2)cc1 (centres undefined) | 5.01 µM [rising, single point] |
| COc1ccc(C2=Nn3c(nnc3-c3ccccc3OC)SC2)cc1OC | 0.501 µM [rising, full curve] |
| CCOC(=O)C1CCCN(C(=O)Cn2nc(CC)n3c(cc4sccc43)c2=O)C1 (centres undefined) | 12.6 µM [rising, single point] |
| O=c1c(Cc2ccccc2O)c(O)nc2n1CCCS2 | 6.31 µM [falling, partial curve] |
| O=C(NC1CCS(=O)(=O)C1)c1ccc(-c2ccc(Br)cc2)o1 (centres undefined) | 10 µM [rising, single point] |
| CCn1c(C)nc2c(=O)oc3ccccc3c21 | 10 µM [rising, partial curve] |
| CC1CCCC(NC(=O)CC2Nc3ccccc3NC2=O)C1C (centres undefined) | 15.8 µM [rising, single point] |
| O=S(=O)(c1ccc(Oc2ncnc3scc(-c4ccccc4)c23)cc1)N1CCOCC1 | 2.51 µM [rising, single point] |
| CC(C)(C)c1ccccc1OCC(=O)NCCC(=O)O | 3.98 µM [falling, single point] |
| Cc1oc(-c2cc(Cl)ccc2Cl)cc1-c1nn2c(C)nnc2s1 | 0.00398 µM [falling, full curve] |
| Cn1c(=O)c(C(=O)Nc2ncccc2O)c(O)c2ccccc21 | 3.98 µM [falling, single point] |
| O=c1c(-c2ccc(Cl)cc2)nc2cnc(Oc3ccccc3)nc2n1C1CC1 | 15.8 µM [rising, partial curve] |
| CN(C)c1ncc2nc(-c3ccc(Cl)cc3)c(=O)n(C)c2n1 | 2.51 µM [rising, partial curve] |
| COc1cc2c(cc1OC)CN(C(=O)C(C)(C)C)CC2 | 10 µM [rising, single point] |
| CC1=C(C#N)C(c2cn(-c3ccccc3)nc2-c2cccs2)C(C#N)=C(C)N1 | 3.98 µM [falling, partial curve] |
| CC(C)CCn1c(CN2CCN(C(=O)c3ccco3)CC2)nc2c1c(=O)n(C)c(=O)n2C | 15.8 µM [rising, partial curve] |
| C=CCOC(=O)C1=C(C)N=C2SCCC(=O)N2C1c1cccs1 (centres undefined) | 20 µM [rising, single point] |
| Cn1c(C(=O)Nc2ccc3c(c2)OCCO3)cc2sccc21 | 25.1 µM [falling, single point] |
| O=c1c(-c2cc(F)cc(F)c2)nc2cncnc2n1Cc1ccccc1Cl | 10 µM [rising, partial curve] |
| CCOc1ccccc1NC(=O)c1cccc2c1C(=O)N(CCOC)C2 | 10 µM [rising, single point] |
| Cc1cc(Nc2cccc(F)c2)n2ncnc2n1 | 12.6 µM [rising, single point] |

Look-ups from the entries so far:
For AC50, `CC1CCCC(NC(=O)CC2Nc3ccccc3NC2=O)C1C` (centres undefined) has the entry 15.8 µM [rising, single point]
For AC50, `C=CCn1c(SCCCCCC)nc(O)cc1=O` has the entry 6.31 µM [rising, partial curve]
For AC50, `O=c1c(Cc2ccccc2O)c(O)nc2n1CCCS2` has the entry 6.31 µM [falling, partial curve]
